The record followed here is patent publication US6465443B2, “Method for inhibiting bone resorption” (Merck & Co., Inc., priority 1997, dated 2002).

This series relates to canine esophagus tissue. In words: Esophageal irritation potential, dog model (esophageal infusion, histopathology). The series is classed as in vivo. How it is done: The esophageal irritation potential of the bisphosphonates is evaluated using a dog model.
The following solutions are prepared:
(1) simulated gastric juice (pH about 2), i.e. the control solution.
(5) simulated gastric juice (pH about 2) containing about 0.20 mg/mL of risedronate sodium on a risedronic acid active basis.
(6) simulated gastric juice (pH about 2) containing about 4.0 mg/mL of tiludronate disodium on a tiludronic acid active basis.
The simulated gastric juice is prepared by dissolving about 960 mg of pepsin (L-585,228000B003, Fisher Chemical) in about 147 mL of 0.90 (wt %) NaCl (aqueous), adding about 3 mL of 1.0 M HCl (aqueous), and adjusting the volume to about 300 mL with deionized water. The pH of the resulting solution is measured and if necessary is adjusted to about 2 using 1.0 M HCl (aqueous) or 1.0 M NaOH (aqueous).
The animals used in the experiments are anesthetized and administered about 50 mL of the appropriate solution over about 30 minutes by infusion into the esophagus using an infusion pump and a rubber catheter. The following treatment experiments are run:
Group 1: This control group contains four animals. Each animal is administered a dosage of about 50 mL of simulated gastric juice [solution (1)] on each of five consecutive days. […]
Group 2: This group contains four animals. […]
Group 3: This group contains five animals. […] The animals are sacrificed about 24 hours after the dose is administered.
Group 4: This group contains five animals. […] The animals are sacrificed about 7 days after the dose is administered.
Group 5: This group contains six animals. […] The animals are administered a total of four dosages. The animals are sacrificed about 7 days after the last dose is administered.
Group 6: This group contains six animals. […] The animals are administered a total of eight dosages. The animals are sacrificed about four days after the last dose is administered.
Group 7: This group contains eight animals. […]

As to `NCCCC(O)(P(=O)(O)O)P(=O)(O)O` [Alendronate, 4-amino-1-hydroxybutylidene-1,1-bisphosphonic acid monosodium trihydrate], the “Esophageal irritation versus low concentration dosages on consecutive days (Group 2)” value is, setting by setting: (high concentration on a weekly basis (Group 5)) “consideraly less esophageal irritation”; (single high concentration dosage (Groups 3 and 4)) “considerably less esophageal irritation (comparable to control Group 1)”; (twice-weekly basis (Group 6)) “consideraly less esophageal irritation”.
